Experimental data reported in the supplement of paper PMC4604168 (melanoma cell lines).
The list shows a part of the results. Single values are uncertain, as repeats are few or missing.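 Cells were imaged in 1,536-well plates, and nuclei stained with an antibody against cleaved PARP were counted against all DNA-stained nuclei to give the apoptosis fraction. Screening doses were chosen to leave most cells alive, and resting and induced cleaved-PARP levels differ strongly between cell lines.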

Experiments:
Assay in all cases: cleaved PARP positive nuclei fraction relative to DMSO control; melanoma cells; higher = more apoptosis
Details in all cases: library dose: low library concentration; 72 h
501Mel = test system: 501Mel
A101D = test system: A101D
A2058 = test system: A2058
A375 = test system: A375
C32 = test system: C32
CBRC008 = test system: CBRC008 (line from a melanoma biopsy)
CBRC013 = test system: CBRC013 (line from a melanoma biopsy)
CBRC014 = test system: CBRC014 (line from a melanoma biopsy)
CBRC016 = test system: CBRC016 (line from a melanoma biopsy)
CBRC017 = test system: CBRC017 (line from a melanoma biopsy)
COLO792 = test system: COLO792
COLO800 = test system: COLO800
COLO829 = test system: COLO829
G361 = test system: G361
IPC-298 = test system: IPC-298
IST-MEL1 = test system: IST-MEL1
LB2518-MEL = test system: LB2518-MEL
LOXIMVI = test system: LOXIMVI
MEL-HO = test system: MEL-HO

Compound	cleaved PARP positive nuclei fraction (501Mel)	cleaved PARP positive nuclei fraction (A101D)	cleaved PARP positive nuclei fraction (A2058)	cleaved PARP positive nuclei fraction (A375)	cleaved PARP positive nuclei fraction (C32)	cleaved PARP positive nuclei fraction (CBRC008)	cleaved PARP positive nuclei fraction (CBRC013)	cleaved PARP positive nuclei fraction (CBRC014)	cleaved PARP positive nuclei fraction (CBRC016)	cleaved PARP positive nuclei fraction (CBRC017)	cleaved PARP positive nuclei fraction (COLO792)	cleaved PARP positive nuclei fraction (COLO800)	cleaved PARP positive nuclei fraction (COLO829)	cleaved PARP positive nuclei fraction (G361)	cleaved PARP positive nuclei fraction (IPC-298)	cleaved PARP positive nuclei fraction (IST-MEL1)	cleaved PARP positive nuclei fraction (LB2518-MEL)	cleaved PARP positive nuclei fraction (LOXIMVI)	cleaved PARP positive nuclei fraction (MEL-HO)
CC(C)C[C@H](NC(=O)[C@H](Cc1ccccc1)NC(=O)c1cnccn1)B(O)O [Bortezomib] + O=C(Nc1cccc(Cl)c1)Nc1ncc(CCNc2ncnc3ccsc23)s1 [SNS314] (first compound 0.001 µM, partner dose 0.0008 µM)	379%	156%	109%	65.4%	134%	2140%	106%	149%	365%	166%	91.5%	157%	167%	2440%	224%	195%	91.3%	79.6%	224%
O=C(O)c1ccc2c(c1)nc(Nc1cccc(Cl)c1)c1ccncc12 + CC1(C)NC(=O)N(c2ccc([N+](=O)[O-])c(C(F)(F)F)c2)C1=O [nilutamide] (first compound 0.4 µM, partner dose 1 µM)	96.4%	122%	149%	88%	171%	60.7%	115%	51.9%	108%	186%	113%	124%	123%	78.1%	49.6%	99%	46.4%	75.2%	178%
CO[C@H]1C[C@@H]2CC[C@@H](C)[C@@](O)(O2)C(=O)C(=O)N2CCCC[C@H]2C(=O)O[C@H]([C@H](C)C[C@@H]2CC[C@@H](OCCO)[C@H](OC)C2)CC(=O)[C@H](C)/C=C(\C)[C@@H](O)[C@@H](OC)C(=O)[C@H](C)C[C@H](C)/C=C/C=C/C=C/1C [everolimus] + Cn1cncc1[C@@](N)(c1ccc(Cl)cc1)c1ccc2c(c1)c(-c1cccc(Cl)c1)cc(=O)n2C [tipifarnib] (first compound 0.02 µM, partner dose 0.01 µM)	155%	104%	55.1%	226%	85.6%	147%	147%	106%	89.2%	104%	195%	61%	115%	153%	69.3%	107%	52.4%	83.1%	419%
Nc1ccn([C@@H]2O[C@H](CO)[C@@H](O)C2(F)F)c(=O)n1 [gemcitabine] + O=C(O)c1ccc(-c2c[nH]c3ncc(-c4ccccc4)cc23)cc1C1CCCC1 [GSK650394] (first compound 0.0004 µM, partner dose 0.16 µM)	75.1%	44.1%	64.2%	36%	7.72%	427%	74.1%	151%	283%	116%	297%	79.6%	204%	50.1%	90.4%	42%	90.5%	109%	163%
Nc1ncn([C@H]2C[C@H](O)[C@@H](CO)O2)c(=O)n1 [decitabine] + NC(=O)Nc1cc(-c2cccc(F)c2)sc1C(=O)N[C@H]1CCCNC1 [AZD7762] (first compound 0.1 µM, partner dose 0.02 µM)	69%	105%	181%	204%	181%	64.5%	104%	88.3%	61.9%	106%	88.5%	241%	104%	90.9%	117%	20.4%	48.4%	130%	404%
O=C(O)[C@@H]1[O][Sb](=[O])([O][Sb]2(=[O])[O][C@H]([C@H](O)CO)[C@H](O)[C@H](C(=O)O)[O]2)[O][C@H]([C@H](O)CO)[C@@H]1O (some centres undefined) [stibogluconate] + COc1cc(Nc2ncc(F)c(Nc3ccc4c(n3)NC(=O)C(C)(C)O4)n2)cc(OC)c1OC [Tamatinib] (first compound 2 µM, partner dose 0.4 µM)	127%	237%	153%	145%	154%	150%	157%	71.9%	47.9%	98.8%	100%	80%	160%	86.9%	108%	58.7%	132%	197%	274%
CO[C@H]1C[C@@H]2CC[C@@H](C)[C@@](O)(O2)C(=O)C(=O)N2CCCC[C@H]2C(=O)O[C@H]([C@H](C)C[C@@H]2CC[C@@H](OCCO)[C@H](OC)C2)CC(=O)[C@H](C)/C=C(\C)[C@@H](O)[C@@H](OC)C(=O)[C@H](C)C[C@H](C)/C=C/C=C/C=C/1C [everolimus] + Cc1cc(N2CCOCC2)cc2[nH]c(-c3c(NC[C@@H](O)c4cccc(Cl)c4)cc[nH]c3=O)nc12 [BMS536924] (first compound 0.02 µM, partner dose 0.2 µM)	357%	98.6%	61.7%	521%	322%	222%	150%	123%	113%	163%	358%	109%	80.3%	186%	132%	126%	76.6%	66.7%	429%
Cn1c(=O)n(-c2ccc(C(C)(C)C#N)cc2)c2c3cc(-c4cnc5ccccc5c4)ccc3ncc21 + CN(C)S(=O)(=O)c1ccc2c(c1)/C(=C/c1cc3c([nH]1)CCCC3)C(=O)N2 [SU6656] (first compound 0.004 µM, partner dose 0.4 µM)	77.1%	85.9%	296%	30.3%	103%	137%	65.3%	92.1%	92.1%	68%	87.6%	279%	106%	122%	44.3%	93.6%	62.7%	71.9%	114%
Nc1ncn([C@H]2C[C@H](O)[C@@H](CO)O2)c(=O)n1 [decitabine] + NCC(=O)Nc1ccc(-n2nc(C(F)(F)F)cc2-c2ccc3c(ccc4ccccc43)c2)cc1 [OSU03012] (first compound 0.1 µM, partner dose 1 µM)	169%	165%	108%	898%	9.86%	151%	54.2%	112%	99%	89.1%	155%	92.6%	35.9%	95.9%	136%	40.6%	198%	41.9%	41.5%
CN1CCN(c2ccc3nc(-c4c(N)c5c(F)cccc5[nH]c4=O)[nH]c3c2)CC1 [Dovitinib] + Cc1cc(N2CCOCC2)cc2[nH]c(-c3c(NC[C@@H](O)c4cccc(Cl)c4)cc[nH]c3=O)nc12 [BMS536924] (first compound 0.1 µM, partner dose 0.2 µM)	123%	94.7%	99.3%	109%	185%	365%	210%	89.9%	62.3%	88%	147%	112%	93.9%	174%	24.3%	220%	281%	147%	71.6%
Cc1cc(Nc2cc(N3CCN(C)CC3)nc(/C=C/c3ccccc3)n2)n[nH]1 + Cc1ccc(NC(=O)c2cccc(N(C)C)c2)cc1NC(=O)c1ccc(O)cc1 [ZM336372] (first compound 0.04 µM, partner dose 2 µM)	140%	81.6%	73.5%	157%	96.1%	34.2%	115%	637%	201%	92.8%	185%	157%	241%	74.3%	26.4%	93%	54.9%	945%	125%
O=C(O)[C@@H]1[O][Sb](=[O])([O][Sb]2(=[O])[O][C@H]([C@H](O)CO)[C@H](O)[C@H](C(=O)O)[O]2)[O][C@H]([C@H](O)CO)[C@@H]1O (some centres undefined) [stibogluconate] + COc1cc2c(Oc3ccc4[nH]c(C)cc4c3F)ncnc2cc1OCCCN1CCCC1 [cediranib] (first compound 2 µM, partner dose 0.4 µM)	234%	88.5%	131%	120%	94.8%	58%	80.7%	86.2%	113%	93.2%	99.7%	162%	103%	53.7%	95.9%	180%	111%	118%	305%
Nc1nc(F)nc2c1ncn2[C@@H]1O[C@H](CO)[C@@H](O)[C@@H]1O [fludarabine] + O=C(O)c1ccc(-c2c[nH]c3ncc(-c4ccccc4)cc23)cc1C1CCCC1 [GSK650394] (first compound 0.2 µM, partner dose 0.16 µM)	1740%	45.4%	89.2%	9680%	43.7%	240%	310%	91%	338%	97.8%	33%	122%	73.4%	106%	49.5%	122%	82.2%	29.3%	76.5%
Nc1ncn([C@H]2C[C@H](O)[C@@H](CO)O2)c(=O)n1 [decitabine] + CN(C)S(=O)(=O)c1ccc2c(c1)/C(=C/c1cc3c([nH]1)CCCC3)C(=O)N2 [SU6656] (first compound 0.1 µM, partner dose 0.4 µM)	101%	213%	137%	124%	48.7%	182%	118%	99.1%	152%	88.2%	183%	118%	127%	192%	67.6%	121%	53.1%	19.3%	85.5%
Cc1cc(Nc2cc(N3CCN(C)CC3)nc(/C=C/c3ccccc3)n2)n[nH]1 + CC(C)(C)c1cnc(CSc2cnc(NC(=O)C3CCNCC3)s2)o1 [SNS-032] (first compound 0.04 µM, partner dose 0.01 µM)	175%	43%	228%	391%	77%	37.5%	125%	85.2%	129%	106%	47.1%	186%	110%	294%	92.7%	154%	353%	173%	127%
CNC(=O)c1cc(Oc2ccc(NC(=O)Nc3ccc(Cl)c(C(F)(F)F)c3)cc2)ccn1 [sorafenib] + C=CCn1c(=O)c2cnc(Nc3ccc(N4CCN(C)CC4)cc3)nc2n1-c1cccc(C(C)(C)O)n1 [MK1775] (first compound 0.4 µM, partner dose 0.02 µM)	95%	144%	19.6%	23.7%	111%	25.4%	102%	113%	166%	156%	73.9%	47.7%	159%	166%	57.9%	79.2%	118%	59.8%	47.5%

Given bar-delimited: part of the list above
Compound | cleaved PARP positive nuclei fraction (501Mel) | cleaved PARP positive nuclei fraction (A101D) | cleaved PARP positive nuclei fraction (A2058) | cleaved PARP positive nuclei fraction (A375) | cleaved PARP positive nuclei fraction (C32) | cleaved PARP positive nuclei fraction (CBRC008) | cleaved PARP positive nuclei fraction (CBRC013) | cleaved PARP positive nuclei fraction (CBRC014) | cleaved PARP positive nuclei fraction (CBRC016) | cleaved PARP positive nuclei fraction (CBRC017) | cleaved PARP positive nuclei fraction (COLO792) | cleaved PARP positive nuclei fraction (COLO800) | cleaved PARP positive nuclei fraction (COLO829) | cleaved PARP positive nuclei fraction (G361) | cleaved PARP positive nuclei fraction (IPC-298) | cleaved PARP positive nuclei fraction (IST-MEL1) | cleaved PARP positive nuclei fraction (LB2518-MEL) | cleaved PARP positive nuclei fraction (LOXIMVI) | cleaved PARP positive nuclei fraction (MEL-HO)
CN1CCN(c2ccc3nc(-c4c(N)c5c(F)cccc5[nH]c4=O)[nH]c3c2)CC1 [Dovitinib] + Cc1cc(N2CCOCC2)cc2[nH]c(-c3c(NC[C@@H](O)c4cccc(Cl)c4)cc[nH]c3=O)nc12 [BMS536924] (first compound 0.1 µM, partner dose 0.2 µM) | 123% | 94.7% | 99.3% | 109% | 185% | 365% | 210% | 89.9% | 62.3% | 88% | 147% | 112% | 93.9% | 174% | 24.3% | 220% | 281% | 147% | 71.6%
Cc1cc(Nc2cc(N3CCN(C)CC3)nc(/C=C/c3ccccc3)n2)n[nH]1 + Cc1ccc(NC(=O)c2cccc(N(C)C)c2)cc1NC(=O)c1ccc(O)cc1 [ZM336372] (first compound 0.04 µM, partner dose 2 µM) | 140% | 81.6% | 73.5% | 157% | 96.1% | 34.2% | 115% | 637% | 201% | 92.8% | 185% | 157% | 241% | 74.3% | 26.4% | 93% | 54.9% | 945% | 125%
